Laboratory results: PubChem BioAssay AID504793 (Drosophila RNAi Screening Center, 2011)

Aim: 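Whole-genome screen for parts of the DNA damage checkpoint at G2/M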 (primary screen)
System: Drosophila S2R+ cells
Reagents: long dsRNA against Drosophila genes, about 0.25 µg dsRNA per well
Timing: 4 days of dsRNA, then 4 hours of drug before read-out
Treatment: doxorubicin 0.5 µM for 4 hours to cause double-strand breaks, in cells also given a low, harmless dose of dsRNA against nbs to sensitise the assay
Read-out: 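Mitotic index as the number of phospho-histone H3-positive cells in each well following doxorubicin, given as raw counts without normalisation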
Scale: mitotic cells: higher = more cells in mitosis, weaker G2 arrest
Rule for the call: 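Genes are called active only when high mitotic counts were reproduced with independent dsRNAs and mitosis was checked for delay without damage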
Meaning of the calls: active = confirmed in follow-up tests; inactive = not confirmed
The deposit covers about 23,000 reagents; shown is an unselected part of those that have a named target and a result. Over the whole deposit, 62 (0.27%) were called active. 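Calls come from follow-up tests whose scores are not deposited, so confirmed genes may have low counts here; counts are not normalised per plate.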 The raw values are shown without normalisation. A plus sign joins genes that one reagent is predicted to hit.

mitotic cells, replicate 1	call	target gene	amplicon
2	inactive	SmE (GeneID 34080)	DRSC02680
11	inactive	CG16815 (GeneID 34725)	DRSC02521
2	inactive	CG16815 (GeneID 34725)	DRSC28136
5	inactive	Vm34Ca (GeneID 34758)	DRSC03475
	inactive	Vm34Ca (GeneID 34758)	DRSC25260
8	inactive	mew (GeneID 32275)	DRSC18971
17	inactive	mew (GeneID 32275)	DRSC20352
5	inactive	Spn75F (GeneID 317912)	DRSC09589
12	inactive	CG30430 (GeneID 246610)	DRSC22260
10	inactive	RpL28 + snoRNA:Me28S-C3351	DRSC26182
5	inactive	CG33303 (GeneID 2768916)	DRSC02848
15	inactive	Acp95EF (GeneID 47852)	DRSC14102
4	inactive	pygo (GeneID 43718)	DRSC14322
11	inactive	pygo (GeneID 43718)	DRSC25137
13	inactive	TwdlQ (GeneID 43214)	DRSC23107
7	inactive	TwdlQ (GeneID 43214)	DRSC27737
2	inactive	Sou (GeneID 37382)	DRSC04356
9	inactive	tko (GeneID 31228)	DRSC18844
7	inactive	tko (GeneID 31228)	DRSC27125
1	inactive	CG13022 (GeneID 39896)	DRSC09902
6	inactive	BthD (GeneID 32317)	DRSC19395
	inactive	BthD (GeneID 32317)	DRSC25871
7	inactive	CG13331 (GeneID 36503)	DRSC06366
12	inactive	CG15046 (GeneID 32833)	DRSC19622
7	inactive	PH4alphaNE2 (GeneID 43628)	DRSC16544
8	inactive	PH4alphaNE2 (GeneID 43628)	DRSC24689
7	inactive	Dhrs4 (GeneID 38598)	DRSC09773
14	inactive	rumpel (GeneID 31674)	DRSC18436
6	inactive	CG11892 (GeneID 43053)	DRSC14428
8	inactive	Obp19d (GeneID 33040)	DRSC20569
6	inactive	CG11537 (GeneID 38373)	DRSC08200
7	inactive	BobA (GeneID 50281)	DRSC09889
3	inactive	Nmdar1 (GeneID 40665)	DRSC12071
2	inactive	Nmdar1 (GeneID 40665)	DRSC12356
4	inactive	Nmdar1 (GeneID 40665)	DRSC24657
8	inactive	Drep3 (GeneID 36292)	DRSC07529
11	inactive	Drep3 (GeneID 36292)	DRSC22344
12	inactive	Sply (GeneID 46059)	DRSC07299
8	inactive	Sply (GeneID 46059)	DRSC27378
8	inactive	Rab9Db + Rab9Fa	DRSC18445
8	inactive	CG17376 (GeneID 59227)	DRSC21717
8	inactive	Lar (GeneID 35259)	DRSC01707
2	inactive	Lar (GeneID 35259)	DRSC03361
17	inactive	CG11227 (GeneID 33071)	DRSC20476
6	inactive	CG11227 (GeneID 33071)	DRSC29906
4	inactive	cnir (GeneID 33520)	DRSC00499
10	inactive	cnir (GeneID 33520)	DRSC26787
8	inactive	CecB (GeneID 43598)	DRSC16605
4	inactive	yellow-d (GeneID 37703)	DRSC04589
7	inactive	yellow-d (GeneID 37703)	DRSC26933
8	inactive	su(f) (GeneID 3354994)	DRSC20907
6	inactive	CG10005 (GeneID 41451)	DRSC14172
6	inactive	Gdi (GeneID 34264)	DRSC03330
9	inactive	Gdi (GeneID 34264)	DRSC28978
3	inactive	Nha1 (GeneID 33961)	DRSC02109
2	inactive	Obp18a (GeneID 32897)	DRSC19736
9	inactive	krz (GeneID 53554)	DRSC16979
13	inactive	AcCoAS (GeneID 40348)	DRSC11477
10	inactive	AcCoAS (GeneID 40348)	DRSC11603
11	inactive	AcCoAS (GeneID 40348)	DRSC22850
8	inactive	AcCoAS (GeneID 40348)	DRSC25972
3	inactive	Gnpnat (GeneID 43504)	DRSC15405
8	inactive	CG17959 (GeneID 31288)	DRSC18142
8	inactive	CG17959 (GeneID 31288)	DRSC28767
12	inactive	puf (GeneID 42935)	DRSC23167
13	inactive	Doa (GeneID 43415)	DRSC13892
21	inactive	Doa (GeneID 43415)	DRSC13893
6	inactive	Doa (GeneID 43415)	DRSC13896
7	inactive	Doa (GeneID 43415)	DRSC13897
5	inactive	Doa (GeneID 43415)	DRSC16650
11	inactive	Doa (GeneID 43415)	DRSC26631
4	inactive	CG14606 (GeneID 40866)	DRSC12550
3	inactive	Mtmr6 (GeneID 37707)	DRSC04046
7	inactive	Mtmr6 (GeneID 37707)	DRSC26569
5	inactive	Dtd (GeneID 41371)	DRSC15362

Records above whose gene name starts with T or t:
mitotic cells, replicate 1	call	target gene	amplicon
13	inactive	TwdlQ (GeneID 43214)	DRSC23107
7	inactive	TwdlQ (GeneID 43214)	DRSC27737
9	inactive	tko (GeneID 31228)	DRSC18844
7	inactive	tko (GeneID 31228)	DRSC27125
